Reference: paper PMC4520684
These are yes or no findings as the source states them, for the method shown. In cells and extracts the contact can be indirect. Some binding calls cover weakened binding; strength is not graded here. Where a sequence is shown, tags or fusion partners need not be part of it.

The chains behind the UniProt entries cited, without tags or fusion partners. Residues count along the entry.
UniProt Q13705, residues 19-512: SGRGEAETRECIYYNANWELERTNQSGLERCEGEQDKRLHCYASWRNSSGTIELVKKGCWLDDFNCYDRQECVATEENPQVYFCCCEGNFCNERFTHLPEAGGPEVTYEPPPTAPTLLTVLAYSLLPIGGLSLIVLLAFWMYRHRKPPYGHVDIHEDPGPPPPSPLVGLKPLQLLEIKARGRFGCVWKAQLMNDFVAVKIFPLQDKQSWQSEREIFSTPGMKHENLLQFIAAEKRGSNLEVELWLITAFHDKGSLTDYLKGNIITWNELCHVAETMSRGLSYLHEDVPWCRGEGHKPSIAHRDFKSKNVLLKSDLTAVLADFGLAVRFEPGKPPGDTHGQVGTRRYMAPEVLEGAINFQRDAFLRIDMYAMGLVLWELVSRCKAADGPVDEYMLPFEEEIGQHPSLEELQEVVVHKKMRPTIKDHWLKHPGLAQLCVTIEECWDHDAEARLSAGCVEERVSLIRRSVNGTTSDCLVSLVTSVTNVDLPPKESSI
UniProt P27037, residues 20-513: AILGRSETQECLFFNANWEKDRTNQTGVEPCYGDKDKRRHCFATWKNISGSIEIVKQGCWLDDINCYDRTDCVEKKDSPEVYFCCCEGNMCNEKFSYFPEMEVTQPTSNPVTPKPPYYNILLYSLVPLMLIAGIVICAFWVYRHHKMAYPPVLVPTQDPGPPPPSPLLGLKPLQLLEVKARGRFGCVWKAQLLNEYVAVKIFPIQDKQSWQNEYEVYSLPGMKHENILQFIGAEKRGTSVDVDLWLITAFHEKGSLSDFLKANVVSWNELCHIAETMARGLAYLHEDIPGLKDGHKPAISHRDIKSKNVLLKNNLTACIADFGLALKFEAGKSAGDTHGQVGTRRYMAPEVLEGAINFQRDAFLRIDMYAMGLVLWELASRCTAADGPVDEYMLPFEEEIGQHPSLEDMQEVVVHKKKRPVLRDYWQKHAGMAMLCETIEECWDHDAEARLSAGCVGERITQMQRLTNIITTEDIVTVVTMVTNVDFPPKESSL

What was measured:
Experiment in all cases: co-IP; COS-7 cells co-transfected with FLAG-tagged inhibitory core and V5- or HA-tagged ligand or receptor; whole cell extracts (50 mM Tris-HCl pH 7.4, 50 mM NaCl, 1% Triton X-100, 100 mM octyl glucoside) precipitated with anti-FLAG, anti-V5 or anti-HA agarose and immunoblotted
[1] = biological target: T1, HA-tagged C-terminal mature GDF11 (ligand) (UniProt O95390)
T1 sequence: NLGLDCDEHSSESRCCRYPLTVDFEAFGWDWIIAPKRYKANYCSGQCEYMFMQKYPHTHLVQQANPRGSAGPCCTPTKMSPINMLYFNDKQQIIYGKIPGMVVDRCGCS

[2] = biological target: HA-tagged type II receptor ActRIIB (UniProt Q13705)
[3] = biological target: T2, V5-tagged C-terminal mature myostatin (ligand) (UniProt O14793)
T2 sequence: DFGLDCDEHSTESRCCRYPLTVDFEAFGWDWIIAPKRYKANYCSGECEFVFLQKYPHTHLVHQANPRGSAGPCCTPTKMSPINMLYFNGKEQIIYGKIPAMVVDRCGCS

[4] = biological target: T3, HA-tagged type I receptor ALK5 (UniProt P36897)
T3 sequence: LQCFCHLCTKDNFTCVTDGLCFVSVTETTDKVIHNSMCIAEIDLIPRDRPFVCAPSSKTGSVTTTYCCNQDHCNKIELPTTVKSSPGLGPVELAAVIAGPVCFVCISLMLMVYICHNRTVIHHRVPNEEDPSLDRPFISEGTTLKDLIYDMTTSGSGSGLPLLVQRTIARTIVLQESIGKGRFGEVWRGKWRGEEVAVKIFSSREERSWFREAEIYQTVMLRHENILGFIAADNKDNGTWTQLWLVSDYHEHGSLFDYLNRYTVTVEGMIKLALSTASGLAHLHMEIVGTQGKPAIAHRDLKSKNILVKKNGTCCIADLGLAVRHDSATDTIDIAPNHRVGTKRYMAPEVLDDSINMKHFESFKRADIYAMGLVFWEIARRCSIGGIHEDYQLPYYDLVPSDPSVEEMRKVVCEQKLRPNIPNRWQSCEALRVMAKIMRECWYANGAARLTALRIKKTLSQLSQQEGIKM

[5] = biological target: HA-tagged type II receptor ActRIIA (UniProt P27037)
[6] = biological target: T4, HA-tagged type I receptor ALK4 (UniProt P36896)
T4 sequence: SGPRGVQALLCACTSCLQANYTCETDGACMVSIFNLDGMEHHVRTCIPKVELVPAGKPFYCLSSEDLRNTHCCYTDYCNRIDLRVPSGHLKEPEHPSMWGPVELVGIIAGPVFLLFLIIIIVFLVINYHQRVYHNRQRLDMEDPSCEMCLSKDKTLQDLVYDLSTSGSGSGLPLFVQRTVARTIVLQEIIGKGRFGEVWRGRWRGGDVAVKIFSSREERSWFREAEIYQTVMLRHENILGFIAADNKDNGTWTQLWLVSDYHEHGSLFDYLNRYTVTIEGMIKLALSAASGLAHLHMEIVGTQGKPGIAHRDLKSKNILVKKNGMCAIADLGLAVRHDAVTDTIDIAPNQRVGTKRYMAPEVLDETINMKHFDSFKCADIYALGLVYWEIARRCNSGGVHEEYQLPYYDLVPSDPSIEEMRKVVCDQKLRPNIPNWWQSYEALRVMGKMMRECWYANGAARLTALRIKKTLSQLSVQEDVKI

binding [1]: binds | binding [2]: binds | binding [3]: binds | binding [4]: binds | binding [5]: binds | binding [6]: binds
Binder: CTWRQNTKSSRIEAIKIQILSKLRLETAP (domain or fragment) [FLAG-tagged inhibitory core of the myostatin prodomain]
